Source: article PMC5103417
Results are given in words; binding and its absence hold for the method and conditions named. Binding seen in cells or lysates may run through a third protein. These calls come from enrichment with a bait or labelling near it, and not all partners need be listed.

B1: Annexin A1 (protein, UniProt P04083 1-346)
chain: MAMVSEFLKQAWFIENEEQEYVQTVKSSKGGPGSAVSPYPTFNPSSDVAALHKAIMVKGVDEATIIDILTKRNNAQRQQIKAAYLQETGKPLDETLKKALTGHLEEVVLALLKTPAQFDADELRAAMKGLGTDEDTLIEILASRTNKEIRDINRVYREELKRDLAKDITSDTSGDFRNALLSLAKGDRSEDFGVNEDLADSDARALYEAGERRKGTDVNVFNTILTTRSYPQLRRVFQKYTKYSKHDMNKVLDLELKGDIEKCLTAIVKCATSKPAFFAEKLHQAMKGVGTRHKALIRIMVSRSEIDMNDIKAFYQKMYGISLCQAILDETKGDYEKILVALCGGN
modifications: biotin (lysate labelled with sulfo-NHS-LC biotin)
B2: Protein S100-A8 (protein, UniProt P05109 1-93)
chain: MLTELEKALNSIIDVYHKYSLIKGNFHAVYRDDLKKLLETECPQYIRKKGADVWFKELDINTDGAVNFQEFLILVIKMGVAAHKKSHEESHKE
modifications: biotin (lysate labelled with sulfo-NHS-LC biotin)

Biological target: MAV_1356 protein (M. avium calmodulin-like protein) (Mycobacterium avium subsp. hominissuis 104)
Assay: affinity purification with mass spectrometry; only the target purified

Row | Binder | binding
1 | B1 | binds
2 | B2 | binds
